Test [1] addresses ThbZIP4 (Tamarix hispida) (UniProt I7C781). Nature of the test: two-hybrid; ThbZIP1 in pGADT7-Rec2 as prey, the other ThbZIPs in pGBKT7 (GAL4 DNA-binding domain) as baits; Y2H Gold yeast grown on SD/-Trp-Leu and SD/-Ade-Trp-Leu/-His/X-α-Gal.
Test [2] addresses ThbZIP2 (Tamarix hispida) (UniProt I7CU82). The description is as above.
Test [3] has as its target ThbZIP7 (Tamarix hispida) (UniProt I7D4A7). The test is described as above.
Test [4] deals with ThbZIP1 (Tamarix hispida) (UniProt C0LQL1). Nature of the test: two-hybrid; ThbZIP1 in pGBKT7 (GAL4 DNA-binding domain) as bait, ThbZIP1 and the other five ThbZIPs in pGADT7 as prey; yeast grown on SD/-Trp-Leu and SD/-Ade-Trp-Leu/-His/X-α-Gal.

The values below come from paper PMC4100136.

Results are given in words; binding and its absence hold for the method and conditions named. Binding calls can cover weak binding; strength is not graded here.

For ThbZIP1 (from UniProt C0LQL1), the binding entry in test [1], in test [2] and in test [3] was “binds” throughout.
For the substance ThbZIP4 (from UniProt I7C781), the binding entry in test [4] is reported as “binds”.
Take ThbZIP7 (from UniProt I7D4A7): the binding result in test [4] is “binds”.
The same measure, in the same setting: then ThbZIP2 (from UniProt I7CU82), with “binds”.
